Article PMC6262466, “Towards Initial Indications for a Thiol-Based Redox Control of Arabidopsis 5-Aminolevulinic Acid Dehydratase” (Antioxidants, 2018)
No constants are given. Whether binding was seen depends on the method and setting. Binding seen in cells or lysates may run through a third protein. A result given as binding can be weak or reduced; the word gives no strength.

Target: 6 x His-tagged TRX f2(C112S)
Experiment: pull-down; 100 ug purified 6 x His-tagged bait on Ni-NTA agarose in PBS; incubated 1.5 h at 4 C with Arabidopsis chloroplast extract solubilized with 1% dodecyl maltoside; five washes with PBS; eluted with 250 mM imidazole; immunoblot; only the target purified

B1: recombinant His-tagged ALAD (ALAD1 without the predicted transit peptide) (enzyme, Arabidopsis thaliana, UniProt Q9SFH9 53-430, looked up)
chain: ASESGNGHAKKLGMSDAECEAAVAAGNVPEAPPVPPKPAAPVGTPIIKPLNLSRRPRRNRASPVTRAAFQETDISPANFVYPLFIHEGEEDTPIGAMPGCYRLGWRHGLVQEVAKARAVGVNSIVLFPKVPEALKNSTGDEAYNDNGLVPRTIRLLKDKYPDLIIYTDVALDPYSSDGHDGIVREDGVIMNDETVHQLCKQAVSQARAGADVVSPSDMMDGRVGAIRSALDAEGFQNVSIMSYTAKYASSFYGPFREALDSNPRFGDKKTYQMNPANYREALIEAREDEAEGADILLVKPGLPYLDIIRLLRDKSPLPIAAYQVSGEYSMIKAGGVLKMIDEEKVMMESLMCLRRAGADIILTYFALQAATCLCGEKR
notes: Arabidopsis thaliana ALAD1 (HEMB1; AT1G69740) without the predicted transit peptide (ChloroP); also called recombinant ALAD; purified ALAD; source: E. coli Rosetta(DE3), pET28a, purified (Ni-NTA agarose); not shown: His6, N-terminal, kept
For B1, which binding is on record?
Its binding is “binds”.
